These are yes or no findings as the source states them, for the method shown. Binding seen in cells or lysates may run through a third protein. A yes stands for co-enrichment or nearness to the bait. Other partners may have been found. Tags and fused reporters may be left off the sequences shown.

Test [1] deals with T1, Hspa13^Flag (human (cDNA from HEK293T)) (UniProt P48723).
T1 sequence: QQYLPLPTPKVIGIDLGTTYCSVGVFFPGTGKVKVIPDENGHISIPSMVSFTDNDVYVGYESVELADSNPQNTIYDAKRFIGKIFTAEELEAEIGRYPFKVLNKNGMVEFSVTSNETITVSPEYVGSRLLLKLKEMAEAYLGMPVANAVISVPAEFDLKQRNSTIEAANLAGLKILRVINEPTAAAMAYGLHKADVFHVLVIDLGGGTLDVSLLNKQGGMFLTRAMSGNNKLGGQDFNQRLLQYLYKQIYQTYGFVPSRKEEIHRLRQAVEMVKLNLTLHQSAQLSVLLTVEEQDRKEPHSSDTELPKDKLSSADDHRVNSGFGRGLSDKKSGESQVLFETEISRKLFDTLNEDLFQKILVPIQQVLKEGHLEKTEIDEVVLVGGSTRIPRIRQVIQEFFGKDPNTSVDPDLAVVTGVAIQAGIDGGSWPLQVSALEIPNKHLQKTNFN
Nature of the test: affinity purification with mass spectrometry.

Test [2] concerns the target T2, Hspa13^Flag (human (cDNA from HEK293T)), P48723.
T2 chain: T1 sequence
Nature of the test: affinity purification with mass spectrometry. The note with it: remark: other sources report otherwise.

B1: SRPRB (protein, UniProt Q9Y5M8 1-271)
chain: MASADSRRVADGGGAGGTFQPYLDTLRQELQQTDPTLLSVVVAVLAVLLTLVFWKLIRSRRSSQRAVLLVGLCDSGKTLLFVRLLTGLYRDTQTSITDSCAVYRVNNNRGNSLTLIDLPGHESLRLQFLERFKSSARAIVFVVDSAAFQREVKDVAEFLYQVLIDSMGLKNTPSFLIACNKQDIAMAKSAKLIQQQLEKELNTLRVTRSAAPSTLDSSSTAPAQLGKKGKEFEFSQLPLKVEFLECSAKGGRGDVGSADIQDLEKWLAKIA
Take B1: in test [1], the binding entry is “binds”.

B2: ZMPSTE24 (protein, UniProt O75844 1-475)
chain: MGMWASLDALWEMPAEKRIFGAVLLFSWTVYLWETFLAQRQRRIYKTTTHVPPELGQIMDSETFEKSRLYQLDKSTFSFWSGLYSETEGTLILLFGGIPYLWRLSGRFCGYAGFGPEYEITQSLVFLLLATLFSALTGLPWSLYNTFVIEEKHGFNQQTLGFFMKDAIKKFVVTQCILLPVSSLLLYIIKIGGDYFFIYAWLFTLVVSLVLVTIYADYIAPLFDKFTPLPEGKLKEEIEVMAKSIDFPLTKVYVVEGSKRSSHSNAYFYGFFKNKRIVLFDTLLEEYSVLNKDIQEDSGMEPRNEEEGNSEEIKAKVKNKKQGCKNEEVLAVLGHELGHWKLGHTVKNIIISQMNSFLCFFLFAVLIGRKELFAAFGFYDSQPTLIGLLIIFQFIFSPYNEVLSFCLTVLSRRFEFQADAFAKKLGKAKDLYSALIKLNKDNLGFPVSDWLFSMWHYSHPPLLERLQALKTMKQH
Regarding B2, the binding entry in test [1] is given as “binds”.

B3: HYOU1, Q9Y4L1 33-999 (protein)
chain: LAVMSVDLGSESMKVAIVKPGVPMEIVLNKESRRKTPVIVTLKENERFFGDSAASMAIKNPKATLRYFQHLLGKQADNPHVALYQARFPEHELTFDPQRQTVHFQISSQLQFSPEEVLGMVLNYSRSLAEDFAEQPIKDAVITVPVFFNQAERRAVLQAARMAGLKVLQLINDNTATALSYGVFRRKDINTTAQNIMFYDMGSGSTVCTIVTYQMVKTKEAGMQPQLQIRGVGFDRTLGGLEMELRLRERLAGLFNEQRKGQRAKDVRENPRAMAKLLREANRLKTVLSANADHMAQIEGLMDDVDFKAKVTRVEFEELCADLFERVPGPVQQALQSAEMSLDEIEQVILVGGATRVPRVQEVLLKAVGKEELGKNINADEAAAMGAVYQAAALSKAFKVKPFVVRDAVVYPILVEFTREVEEEPGIHSLKHNKRVLFSRMGPYPQRKVITFNRYSHDFNFHINYGDLGFLGPEDLRVFGSQNLTTVKLKGVGDSFKKYPDYESKGIKAHFNLDESGVLSLDRVESVFETLVEDSAEEESTLTKLGNTISSLFGGGTTPDAKENGTDTVQEEEESPAEGSKDEPGEQVELKEEAEAPVEDGSQPPPPEPKGDATPEGEKATEKENGDKSEAQKPSEKAEAGPEGVAPAPEGEKKQKPARKRRMVEEIGVELVVLDLPDLPEDKLAQSVQKLQDLTLRDLEKQEREKAANSLEAFIFETQDKLYQPEYQEVSTEEQREEISGKLSAASTWLEDEGVGATTVMLKEKLAELRKLCQGLFFRVEERKKWPERLSALDNLLNHSSMFLKGARLIPEMDQIFTEVEMTTLEKVINETWAWKNATLAEQAKLPATEKPVLLSKDIEAKMMALDREVQYLLNKAKFTKPRPRPKDKNGTRAEPPLNASASDQGEKVIPPAGQTEDAEPISEPEKVETGSEPGDTEPLELGGPGAEPEQKEQSTGQKRPLKNDEL
Regarding B3, in test [2], the binding entry is listed as “binds”.

B4: SEC11C (protein, UniProt Q9BY50 1-192)
chain: MVRAGAVGAHLPASGLDIFGDLKKMNKRQLYYQVLNFAMIVSSALMIWKGLIVLTGSESPIVVVLSGSMEPAFHRGDLLFLTNFREDPIRAGEIVVFKVEGRDIPIVHRVIKVHEKDNGDIKFLTKGDNNEVDDRGLYKEGQNWLEKKDVVGRARGFLPYVGMVTIIMNDYPKFKYALLAVMGAYVLLKRES
Turning to B4, in test [1], the binding entry is given as “binds”.

B5: SEC11A (protein, UniProt P67812 1-179)
chain: MLSLDFLDDVRRMNKRQLYYQVLNFGMIVSSALMIWKGLMVITGSESPIVVVLSGSMEPAFHRGDLLFLTNRVEDPIRVGEIVVFRIEGREIPIVHRVLKIHEKQNGHIKFLTKGDNNAVDDRGLYKQGQHWLEKKDVVGRARGFVPYIGIVTILMNDYPKFKYAVLFLLGLFVLVHRE
B5: the binding entry in test [1] is on record as “binds”.

(Values after paper doi:10.1101/2022.06.27.497790.)
